According to PMC3765780, “Pyocyanin-induced mucin production is associated with redox modification of FOXA2”:
Construct, isoform or probe ends are uncertain for at least one entry. A weaker result is weaker than the reference pair of the same experiment. Tags and fusion partners may be left off the protein sequences shown.

Biological target: T1, FOXA2 (immunoprecipitated from PCN-exposed NCI-H292 cells) (UniProt Q9Y261)
T1 sequence (looked up, limits assumed): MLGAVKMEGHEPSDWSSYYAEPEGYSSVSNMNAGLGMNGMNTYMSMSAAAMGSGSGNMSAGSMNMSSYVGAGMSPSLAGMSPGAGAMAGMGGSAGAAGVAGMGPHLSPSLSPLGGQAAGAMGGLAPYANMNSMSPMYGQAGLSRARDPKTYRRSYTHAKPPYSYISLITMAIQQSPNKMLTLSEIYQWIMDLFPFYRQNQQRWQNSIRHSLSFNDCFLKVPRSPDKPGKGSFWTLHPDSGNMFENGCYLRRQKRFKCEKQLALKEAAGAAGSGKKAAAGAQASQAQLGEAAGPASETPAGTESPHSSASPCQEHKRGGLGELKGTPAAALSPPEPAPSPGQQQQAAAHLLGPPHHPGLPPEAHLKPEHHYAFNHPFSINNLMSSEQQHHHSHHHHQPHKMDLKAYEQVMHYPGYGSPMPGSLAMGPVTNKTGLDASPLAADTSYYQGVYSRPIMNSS
Experiment: EMSA
Details: equal FOXA2 amount, 10 mM Hepes pH 7.9, 1 mM EDTA, 5 mM MgCl2, 10% glycerol, DTT (printed '0.5 m MDTT', probably 0.5 mM), 1 mg/ml BSA, 1 ug poly(dI-dC), 2.5 ug FOXA2, 20 min, native protein

Sequence: CCTCCCCGAGAGCAAACACACGTGGCTGGA (double strand) [MUC5B promoter FOXA2 site probe]
- binding result (cells exposed to 1.6 ug/ml PCN): binds more weakly
- binding result (cells exposed to 6.25 ug/ml PCN): binds more weakly
